Results are given in words; binding and its absence hold for the method and conditions named. In cells and extracts the contact can be indirect. Some binding calls cover weakened binding; strength is not graded here. Tags and fused reporters may be left off the sequences shown.
Molecular target: FLAG-YAP1 (UniProt P46937)
Experiment: co-IP; cells transfected with Myc-NF1 fragments and FLAG-YAP1; lysates on anti-FLAG affinity beads overnight at 4 °C with 1 mg/ml BSA; washed with 50 mM Tris pH 8.0, 150 mM NaCl, 0.1% Triton, 5 mM EDTA; western blot

Amino acid sequences for entries named in this document (tags omitted).
UniProt P46937: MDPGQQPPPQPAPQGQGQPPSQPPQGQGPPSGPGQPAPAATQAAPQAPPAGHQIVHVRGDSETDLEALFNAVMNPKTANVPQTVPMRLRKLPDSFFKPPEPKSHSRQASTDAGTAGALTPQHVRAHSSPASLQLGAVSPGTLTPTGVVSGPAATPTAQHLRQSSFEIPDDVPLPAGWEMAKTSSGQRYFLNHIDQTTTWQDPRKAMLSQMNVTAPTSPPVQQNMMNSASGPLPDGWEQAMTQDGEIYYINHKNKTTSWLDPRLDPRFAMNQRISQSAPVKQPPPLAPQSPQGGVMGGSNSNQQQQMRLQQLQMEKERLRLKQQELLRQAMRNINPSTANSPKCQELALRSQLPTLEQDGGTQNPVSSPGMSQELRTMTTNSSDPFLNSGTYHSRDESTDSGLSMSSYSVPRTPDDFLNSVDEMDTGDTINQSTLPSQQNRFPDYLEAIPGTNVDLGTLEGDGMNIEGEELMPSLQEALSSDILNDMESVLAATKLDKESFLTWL

binding	Binder
binds	Myc-NF1^2560-2818 (domain or fragment, UniProt P21359-2 2560-2818) TQRISSSQQHPHLRKVSVSESNVLLDEEVLTDPKIQALLLTVLATLVKYTTDEFDQRILYEYLAEASVVFPKVFPVVHNLLDSKINTLLSLCQDPNLLNPIHGIVQSVVYHEESPPQYQTSYLQSFGFNGLWRFAGPFSKQTQIPDYAELIVKFLDALIDTYLPGIDEETSEESLLTPTSPYPPALQSQLSITANLNLSNSMTSLATSQHSPGIDKENVELSPTTGHCNSGRTRHGSASQVQKQRSAGSFKRNSIKKIV
no binding	Myc-NF1^AAAA (alanine substitution of the PPQY motif in NF1^2560-2818) (domain or fragment, UniProt P21359-2 2560-2818) TQRISSSQQHPHLRKVSVSESNVLLDEEVLTDPKIQALLLTVLATLVKYTTDEFDQRILYEYLAEASVVFPKVFPVVHNLLDSKINTLLSLCQDPNLLNPIHGIVQSVVYHEESAAAAQTSYLQSFGFNGLWRFAGPFSKQTQIPDYAELIVKFLDALIDTYLPGIDEETSEESLLTPTSPYPPALQSQLSITANLNLSNSMTSLATSQHSPGIDKENVELSPTTGHCNSGRTRHGSASQVQKQRSAGSFKRNSIKKIV
